Results taken from paper PMC13144351.
No constants are given. Whether binding was seen depends on the method and setting. In cells and extracts the contact can be indirect. Here binding means that the protein was enriched with, or labelled near, the bait; the list need not be complete.

Biological target: 3xFLAG-UFM1 (ubiquitin-fold modifier 1, endogenously tagged) (human) (UniProt P61960)
Test: affinity purification with mass spectrometry; anti-FLAG M2 (or IgG control) on protein G Dynabeads; ribosomal pellets (25% sucrose cushion) of HCT116 3xFLAG-UFM1 cells, untreated or 200 nM anisomycin 1 h; digitonin buffer, 4 °C, 2 h; on-bead trypsin digest, LC-MS/MS

binding: binds
B1: NEMF (protein, UniProt O60524 1-1076)
chain: MKSRFSTIDLRAVLAELNASLLGMRVNNVYDVDNKTYLIRLQKPDFKATLLLESGIRIHTTEFEWPKNMMPSSFAMKCRKHLKSRRLVSAKQLGVDRIVDFQFGSDEAAYHLIIELYDRGNIVLTDYEYVILNILRFRTDEADDVKFAVRERYPLDHARAAEPLLTLERLTEIVASAPKGELLKRVLNPLLPYGPALIEHCLLENGFSGNVKVDEKLETKDIEKVLVSLQKAEDYMKTTSNFSGKGYIIQKREIKPSLEADKPVEDILTYEEFHPFLFSQHSQCPYIEFESFDKAVDEFYSKIEGQKIDLKALQQEKQALKKLDNVRKDHENRLEALQQAQEIDKLKGELIEMNLQIVDRAIQVVRSALANQIDWTEIGLIVKEAQAQGDPVASAIKELKLQTNHVTMLLRNPYLLSEEEDDDVDGDVNVEKNETEPPKGKKKKQKNKQLQKPQKNKPLLVDVDLSLSAYANAKKYYDHKRYAAKKTQKTVEAAEKAFKSAEKKTKQTLKEVQTVTSIQKARKVYWFEKFLWFISSENYLIIGGRDQQQNEIIVKRYLTPGDIYVHADLHGATSCVIKNPTGEPIPPRTLTEAGTMALCYSAAWDARVITSAWWVYHHQVSKTAPTGEYLTTGSFMIRGKKNFLPPSYLMMGFSFLFKVDESCVWRHQGERKVRVQDEDMETLASCTSELISEEMEQLDGGDTSSDEDKEEHETPVEVELMTQVDQEDITLQSGRDELNEELIQEESSEDEGEYEEVRKDQDSVGEMKDEGEETLNYPDTTIDLSHLQPQRSIQKLASKEESSNSSDSKSQSRRHLSAKERREMKKKKLPSDSGDLEALEGKDKEKESTVHIETHQNTSKNVAAVQPMKRGQKSKMKKMKEKYKDQDEEDRELIMKLLGSAGSNKEEKGKKGKKGKTKDEPVKKQPQKPRGGQRVSDNIKKETPFLEVITHELQDFAVDDPHDDKEEQDLDQQGNEENLFDSLTGQPHPEDVLLFAIPICAPYTTMTNYKYKVKLTPGVQKKGKAAKTALNSFMHSKEATAREKDLFRSVKDTDLSRNIPGKVKVSAPNLLNVKRK
